These are yes or no findings as the source states them, for the method shown. Binding seen in cells or lysates may run through a third protein. Some binding calls cover weakened binding; strength is not graded here.
Experiments:
[1] = biological target: Bcl6 (endogenous, mouse CD4+ T cells) (mouse) (UniProt P41183); test: endogenous co-IP and co-IP from transfected 293T cells (FIG. 8)
[2] = biological target: Bcl6 (endogenous, mouse CD4+ T cells) (mouse) (UniProt P41183); test: endogenous co-IP from CD62L- CD4+ T cells of OPN-i KI mice 3 d after immunization (FIG. 8A)
[3] = biological target: p85α (endogenous, mouse CD4+ T cells) (mouse) (UniProt P26450); test: co-IP, transfected 293T cells and primary mouse CD4+ T cells (FIG. 6)
[4] = biological target: p85α (endogenous, mouse CD4+ T cells) (mouse) (UniProt P26450); test: co-immunoprecipitation from primary mouse CD62L- CD4+ T cells after anti-CD3/anti-ICOS stimulation (FIG. 6B)

Protein sequences, listed by entry. Tags and fused reporters are not part of them. Lines headed by an entry give the natural chain unless they say otherwise; changes in a name come on top.
UniProt P10923: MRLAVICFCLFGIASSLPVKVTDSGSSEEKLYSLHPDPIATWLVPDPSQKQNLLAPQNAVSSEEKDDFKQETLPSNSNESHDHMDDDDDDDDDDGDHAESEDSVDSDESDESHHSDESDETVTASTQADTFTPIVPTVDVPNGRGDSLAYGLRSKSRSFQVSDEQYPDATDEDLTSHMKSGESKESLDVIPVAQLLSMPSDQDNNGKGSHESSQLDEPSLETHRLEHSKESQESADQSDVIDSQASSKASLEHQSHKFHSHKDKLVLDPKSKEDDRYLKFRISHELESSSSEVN

Measured: binding

intracellular osteopontin (OPN-i) (from UniProt P10923 17-294)
binds: all assays above

From patent publication US20170269076A1
